Test [1] deals with HeLa cells. Description: WST-1 cell viability assay, HeLa. It counts as cell-based. The conditions noted are these: Homo sapiens. The protocol: (§1) HeLa and PNT1-A were cultured in RPMI-1640 medium supplemented with 10% Foetal bovine serum (FBS) and penicillin (100 U/mL)/streptomycin ([…]), L-glutamine (2 mM) at 37 °C in a 5% CO2 humidified atmosphere. Since it is an unstable amino acid, the medium was supplemented with L-glutamine immediately prior.
(§2) WST-1 Cell Proliferation test, a product of the Roche Company is a colourimetric assay based on the cleavage of a tetrazolium salt by mitochondrial dehydrogenases to generate formazan in living cells. This assay is simple because only 10 μL of WST-1 reactant is added to 100 μL media on a 96-well plate. The cells were counted with a haemocytometer immediately before the subsequent procedures. The HeLa and PNT1A cells were used for seeding, with 5 × 10^3 cells per well, and then incubated overnight in a humidified atmosphere (37 °C with 5% CO2).
(§3) The next day, WST-1 is added to cells treated with S-1 as a cytotoxic reagent and the incubation is continued for an additional 1−2 h in a humidified atmosphere. One of the advantages of the WST-1 test is that colour change (yellow) can be seen with the naked eye.
After incubation, the plate was shaken well for 1 min. The absorbance is then measured at 450 nm versus a 650 nm reference by using a plate reader (M5, Spectra MAX) and SoftMax Pro software from Molecular Devices to compare experimental samples to controls.
IC50 is a measure used to estimate the potency of a material that inhibits a specific biological or biochemical function. […]
We determined the cell viability of CC cell line HeLa grown in 96-well plates for 24, 48, 72 h and treated with increasing concentrations (0, 2.5, 5, 10, 25, 50, 100, 200 μM) of S-1. Cell viability was evaluated with colourimetric WST-1 assay as described previously tested on the splitting of the tetrazolium salt by mitochondria dehydrogenases in viable cell. […] The number of viable cells was then quantified using trypan blue exclusion. […]

Test [2] relates to PNT1-A cells. The test can be described thus: WST-1 cell viability assay, PNT1-A. The test is classed as cell-based. The conditions noted are these: Homo sapiens, PNT1A, PNT1-A 24 h. The protocol: as §1, §2, §3
After incubation, the plate was shaken well for 1 min. The absorbance is then measured at 450 nm versus a 650 nm reference by using a plate reader (M5, Spectra MAX) and SoftMax Pro software from Molecular Devices to compare experimental samples to controls. […]
(In general: Formazan colour is commonly taken as a measure of viable cells.)

SMILES strings stand for the structures. pIC50: −log10 of the molar value.

Take `CC(=O)Nc1nnc(S(N)(=O)=O)s1` [AAZ, Acetazolamide]: the pIC50 (usually the IC50 on a negative log10 scale, so that one unit is a factor of ten) in test [1] (HeLa 24 h) is 4.28; in test [1] (HeLa 48 h), 4.34; in test [1] (HeLa 72 h) it was 4.27; in test [2], 4.14.

These data come from paper PMC6394301, “Evaluation of the anticancer potential of a sulphonamide carbonic anhydrase IX inhibitor on cervical cancer cells” (Journal of Enzyme Inhibition and Medicinal Chemistry, 2019).
